Results published in patent publication US7199100B2, “Cyclic peptides, method for preparing and use as angiogenesis inhibitors or activator” (Commissariat a l'Energie Atomique, priority 2000, dated 2007).
Not every detail of the peptide structures is certain; ends, links or a residue may be inferred. At least one compound was matched to its structure with a doubt left. Square brackets hold non-standard residues; d marks the D form. Peptide text beside a SMILES is read from it.

Sequences of proteins named here, by UniProt entry; tags and fusion partners are left off. Residues count along the entry.
UniProt P35968, 20-1356, species assumed: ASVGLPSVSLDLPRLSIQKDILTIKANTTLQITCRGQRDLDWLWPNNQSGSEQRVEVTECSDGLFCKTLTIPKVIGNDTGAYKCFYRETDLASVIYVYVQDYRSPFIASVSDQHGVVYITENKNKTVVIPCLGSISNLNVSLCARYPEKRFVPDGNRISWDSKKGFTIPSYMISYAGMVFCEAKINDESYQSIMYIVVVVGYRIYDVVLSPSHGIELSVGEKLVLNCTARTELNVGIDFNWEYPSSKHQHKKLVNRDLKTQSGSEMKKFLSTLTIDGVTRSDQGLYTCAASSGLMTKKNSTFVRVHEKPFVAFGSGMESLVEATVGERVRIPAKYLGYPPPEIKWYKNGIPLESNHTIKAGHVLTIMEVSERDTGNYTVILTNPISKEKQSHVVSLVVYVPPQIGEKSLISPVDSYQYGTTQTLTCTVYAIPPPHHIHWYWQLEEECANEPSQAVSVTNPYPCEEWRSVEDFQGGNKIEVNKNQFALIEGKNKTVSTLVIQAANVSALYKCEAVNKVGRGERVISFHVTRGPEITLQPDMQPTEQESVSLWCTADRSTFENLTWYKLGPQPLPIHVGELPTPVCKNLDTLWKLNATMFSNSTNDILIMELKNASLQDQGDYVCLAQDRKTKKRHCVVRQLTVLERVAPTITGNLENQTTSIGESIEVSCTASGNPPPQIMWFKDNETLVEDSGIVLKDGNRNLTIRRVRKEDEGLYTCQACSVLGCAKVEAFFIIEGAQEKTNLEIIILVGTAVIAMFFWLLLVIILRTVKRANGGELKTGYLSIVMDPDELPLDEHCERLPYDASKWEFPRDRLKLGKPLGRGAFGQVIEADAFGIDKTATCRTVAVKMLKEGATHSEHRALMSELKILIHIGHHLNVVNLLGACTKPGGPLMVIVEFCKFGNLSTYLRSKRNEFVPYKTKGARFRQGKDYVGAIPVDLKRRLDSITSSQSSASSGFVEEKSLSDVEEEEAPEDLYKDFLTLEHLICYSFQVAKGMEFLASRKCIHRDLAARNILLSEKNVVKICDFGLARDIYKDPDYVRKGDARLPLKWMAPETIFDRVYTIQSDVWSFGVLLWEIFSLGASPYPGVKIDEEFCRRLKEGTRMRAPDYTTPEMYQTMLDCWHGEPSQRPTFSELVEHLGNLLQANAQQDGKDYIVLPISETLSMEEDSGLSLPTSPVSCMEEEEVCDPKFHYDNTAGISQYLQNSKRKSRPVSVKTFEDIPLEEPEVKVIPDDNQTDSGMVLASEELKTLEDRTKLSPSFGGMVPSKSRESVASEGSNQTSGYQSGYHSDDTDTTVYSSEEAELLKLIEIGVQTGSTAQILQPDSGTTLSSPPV

Target: T1, KDR receptor (VEGFR2) (Homo sapiens, UniProt P35968)
T1 construct: expressed in transfected cells; host or cells: heparan sulfate deficient Chinese hamster ovary cells (CHOm VEGFR2), VEGFR2 cDNA in psV-7d vector
Experiment: Inhibition of 125I-VEGF binding to KDR receptor on CHOm VEGFR2 cells
Details: for IC50: read-out: IC50 (concentration required to inhibit 50% of binding of VEGF to the KDR receptor), 5 ng/mL 125I-VEGF, 2 hours at 4° C.
Description: The P1 to P24 peptides are tested as concerns their property of inhibition of the binding of VEGF to its KDR receptor.
For these tests, heparin sulfate deficient Chinese hamster ovarian cells that are transfected with an expression vector containing VEGFR2cDnA (CHOm VEGFR2 cells) are used.
The CHOm VEGFR2 cells are routinely cultured in Dulbecco modified Eagle medium and supplemented with 10% (v/v) fetal calf serum (FCS), 50 U/ml penicillin, 50 μg/ml streptomycin, 1 mg/ml glucose and 2 mM L-glutamine at 37° C. in a 5% CO2 atmosphere.
The subconfluent flasks are transferred at 4° C. […] At the end of the incubation period, the cells are washed 3 times using iced PBS and solubized in 1 mL of buffer with 2% Triton X 100, 10% glycol, 1 mg/mL bovine serum albumin BSA. The radioactivity rate bound to the cells is counted in an MR-250 Kontron gamma counter. […] Specific binding is calculated by subtracting non-specific binding from total binding.
These assays are continued using the cyclopeptides of interest and two linear peptides as controls for an inhibition analysis as a function of dose.

SMILES | inhibiting binding of VEGF to the KDR receptor (in words) (125I-VEGF) | IC50
CC[C@H](C)[C@@H]1NC(=O)[C@H](CCC(N)=O)NC(=O)[C@H](CCC(=O)O)NC(=O)[C@H](CCC(N)=O)NC(=O)[C@H](Cc2c[nH]cn2)NC(=O)[C@@H]2CCCN2C(=O)[C@H](CCCCN)NC(=O)[C@H]([C@@H](C)CC)NC(=O)[C@H](CCCNC(=N)N)NC(=O)[C@H](CCSC)NC1=O [Peptide P22, reference compound] (cyclo(EQIMRIKPHQ)) | not more effective than the linear peptides | –
CC[C@H](C)[C@@H]1NC(=O)[C@H](CCCNC(=N)N)NC(=O)[C@@H]2CCCN2C(=O)[C@@H](Cc2ccc(O)cc2)NC(=O)[C@H](CCC(N)=O)NC(=O)[C@H](Cc2c[nH]cn2)NC(=O)[C@@H]2CCCN2C(=O)[C@H](CCCCN)NC1=O [Peptide P23] (cyclo([dY]PRIKPHQ)) | – | 8 µM
CC[C@H](C)[C@@H]1NC(=O)[C@H](CCCNC(=N)N)NC(=O)[C@@H]2CCCN2C(=O)[C@@H](Cc2ccccc2)NC(=O)[C@H](CCC(N)=O)NC(=O)[C@H](Cc2c[nH]cn2)NC(=O)[C@@H]2CCCN2C(=O)[C@H](CCCCN)NC1=O [Peptide P18, cyclo(DPhe-Arg-Ile-Lys-Pro-His-Gln)] | – | > 300 µM
